Test results as given in the supplement of paper PMC9744312.
Counter-ions that a name gives are not always drawn. Some of the results follow. This is a noisy data set.

system: Peyronie's disease tunica albuginea primary fibroblasts; assay: cell viability (DRAQ5 nuclear stain) relative to TGF-beta1-only control; higher = more viable cells; conditions: 10 µM; TGF-beta1 10 ng/mL; 72 h

Row | Structure (SMILES) | cell viability [%]
1 | O=P(O)(O)C(O)(Cc1cccnc1)P(=O)(O)O [Risedronate Sodium] | 109
2 | CCN(CC)C(=O)N1CCN(C)CC1 [Diethylcarbamazine citrate] | 89
3 | O=C(O)c1cc(O)c(O)c(O)c1 [Gallic acid] | 98.8
4 | Nc1cc(N2CCCCC2)nc(N)[n+]1OS(=O)(=O)[O-] [Minoxidil sulphate] | 81.9
5 | CC(C)(C)C(O)/C=C/c1ccc2c(c1)OCO2 (stereo not given) [Stiripentol] | 88.1
6 | CCc1cc(/C(C)=N/OCc2ccc(C3CCCCC3)c(C(F)(F)F)c2)ccc1CN1CC(C(=O)O)C1 [BAF312 (Siponimod)] | 85.7
7 | CC[C@]1(O)C[C@@H]2CN(CCc3c([nH]c4ccccc34)[C@@](C(=O)OC)(c3cc4c(cc3OC)N(C)[C@H]3[C@@](O)(C(=O)OC)[C@H](OC(C)=O)[C@]5(CC)C=CCN6CC[C@]43[C@@H]65)C2)C1 [Vinblastine sulfate] | 52
8 | COc1cc2c(cc1OC)CN(CCc1ccc(NC(=O)c3cccc4c(=O)c5cccc(OC)c5[nH]c34)cc1)CC2 | 103
9 | CC(CCc1ccc(O)cc1)NCC(O)c1ccc(O)cc1 (stereo not given) [Ractopamine HCl] | 94
10 | CCN(CCCc1ccccc1)CCCc1ccccc1 [Alverine Citrate] | 87.8
11 | Cc1c(C)c2c(c(C)c1O)CC[C@@](C)(CCC[C@H](C)CCC[C@H](C)CCCC(C)C)O2 [Vitamin E] | 66.6
12 | CCC(=O)NCC[C@@H]1CCc2ccc3c(c21)CCO3 [Ramelteon] | 90.4
13 | COC1=CC(=O)C[C@@H](C)[C@]12Oc1c(Cl)c(OC)cc(OC)c1C2=O [Griseofulvin] | 83.4
14 | O[C@@H](COc1cccc2ncccc12)CN1CCN(C2c3ccccc3[C@@H]3[C@H](c4ccccc42)C3(F)F)CC1 (stereo not given in full) | 85.4
15 | NS(=O)(=O)NCCNc1nonc1/C(=N/O)Nc1ccc(F)c(Br)c1 | 84.1
16 | OCC(O)CN1CCN(c2ccccc2)CC1 (stereo not given) [Dropropizine] | 102
17 | COc1cc(N)c(Cl)cc1C(=O)NC1CCN(CCCOc2ccc(F)cc2)CC1OC (stereo not given) [Cisapride hydrate] | 85.8
18 | COc1cc(N)c(Cl)cc1C(=O)NC1CCN(CCCOc2ccc(F)cc2)CC1OC (stereo not given) [Cisapride] | 94.8
19 | CN(C)CCC(c1ccc(Cl)cc1)c1ccccn1 (stereo not given) [Chlorpheniramine Maleate] | 87.7
20 | CCCC(CCC)C(=O)O [Valproic acid sodium salt (Sodium valproate)] | 61.3
21 | CCCC(CCC)C(=O)O [Valproic acid] | 80.6
22 | CCCC(CCC)C(=O)O [Divalproex Sodium] | 86.7
23 | CN(C)[C@@H](CCOc1cccc2ccccc12)c1ccccc1 [Dapoxetine HCl] | 91.3
24 | Cc1onc(-c2ccccc2)c1C(=O)N[C@@H]1C(=O)N2[C@@H]1SC(C)(C)[C@@H]2C(=O)O [Oxacillin sodium monohydrate] | 91.6
25 | Cc1nccn1CCC(C(N)=O)(c1ccccc1)c1ccccc1 [Imidafenacin] | 88.5

Quoted at random: 2 entries already listed, in no set order.
Row | Structure (SMILES) | cell viability [%]
25 | Cc1nccn1CCC(C(N)=O)(c1ccccc1)c1ccccc1 [Imidafenacin] | 88.5
9 | CC(CCc1ccc(O)cc1)NCC(O)c1ccc(O)cc1 (stereo not given) [Ractopamine HCl] | 94

Some of the entries so far, with tabs:
Row	Structure (SMILES)	cell viability [%]
15	NS(=O)(=O)NCCNc1nonc1/C(=N/O)Nc1ccc(F)c(Br)c1	84.1
19	CN(C)CCC(c1ccc(Cl)cc1)c1ccccn1 (stereo not given) [Chlorpheniramine Maleate]	87.7

The listing continues.

Row | Structure (SMILES) | cell viability [%]
26 | Cc1c(OCC(F)(F)F)ccnc1C[S+]([O-])c1nc2ccccc2[nH]1 (stereo not given) [Lansoprazole] | 83.2
27 | O=C([O-])C(O)[C@H](O)[C@@H](O)[C@H](O)[C@H](O)CO.O=C([O-])C(O)[C@H](O)[C@@H](O)[C@H](O)[C@H](O)CO.[Ca+2] (stereo not given in full) [Calcium Gluceptate] | 93.4
28 | COc1ccc2cc1Oc1ccc(cc1)C[C@H]1c3c(cc4c(c3Oc3cc5c(cc3OC)CCN(C)[C@@H]5C2)OCO4)CCN1C [Cepharanthine] | 103
29 | O=C(O[C@@H]1C[C@@H]2C[C@H]3C[C@H](C1)N2CC3=O)c1c[nH]c2ccccc12 [Dolasetron] | 82.6
30 | COC(=O)Nc1nc2cc(C(=O)c3ccc(F)cc3)ccc2[nH]1 [Flubendazole] | 87.7
31 | CCOC(=O)c1ccc(O)cc1 [Ethylparaben] | 93.6
32 | CC(=O)O[C@H]1Cc2ccccc2N(C(N)=O)c2ccccc21 [Eslicarbazepine Acetate] | 90.8
33 | CC1CCc2cc(F)cc3c(=O)c(C(=O)O)cn1c23 (stereo not given) [Flumequine] | 98
34 | CCCCOc1ccc(OCCCN2CCOCC2)cc1 [Pramoxine HCl] | 89.3
35 | C[C@@H](O)[C@H]1C(=O)N2C(C(=O)OCOC(=O)C(C)(C)C)=C(SC3CN(C4=NCCS4)C3)[C@H](C)[C@H]12 [Tebipenem Pivoxil] | 81.3
36 | C1CNCCNCCNCCN1 [Cyclen] | 91.7
37 | COc1ccc(-n2nc(C(N)=O)c3c2C(=O)N(c2ccc(N4CCCCC4=O)cc2)CC3)cc1 [Apixaban] | 99
38 | CC(C)[C@H]1CC[C@H](C(=O)N[C@H](Cc2ccccc2)C(=O)O)CC1 [Nateglinide] | 85.2
39 | CC(C)c1nc(CN(C)C(=O)N[C@H](C(=O)N[C@@H](Cc2ccccc2)C[C@H](O)[C@H](Cc2ccccc2)NC(=O)OCc2cncs2)C(C)C)cs1 [Ritonavir] | 77.5
40 | COc1ccccc1OCCNCC(O)COc1cccc2[nH]c3ccccc3c12 (stereo not given) [Carvedilol Phosphate] | 70.3
41 | COc1ccccc1OCCNCC(O)COc1cccc2[nH]c3ccccc3c12 (stereo not given) [Carvedilol] | 81.1
42 | CN1CCN(c2ccc(C(=O)Nc3n[nH]c4ccc(Cc5cc(F)cc(F)c5)cc34)c(NC3CCOCC3)c2)CC1 [Entrectinib (RXDX-101)] | 51.6
43 | S=P(N1CC1)(N1CC1)N1CC1 [Thiotepa] | 84
44 | CCN1CCCC1CNC(=O)c1cc(S(=O)(=O)CC)c(N)cc1OC (stereo not given) [Amisulpride] | 60
45 | CC(C)(CO)C(O)C(=O)NCCCO (racemic) [DL-Panthenol] | 87
46 | Nc1nc(N)nc(-c2cc(Cl)ccc2Cl)n1 [Irsogladine] | 94.6
47 | CNC(=O)c1ccccc1Sc1ccc2c(/C=C/c3ccccn3)n[nH]c2c1 [Axitinib] | 84.7
48 | CC(CN1c2ccccc2Sc2ccccc21)N(C)C (stereo not given) [Promethazine HCl] | 81.7
49 | NS(=O)(=O)c1cc2c(cc1C(F)(F)F)NC(Cc1ccccc1)NS2(=O)=O (stereo not given) [Bendroflumethiazide] | 86.1
50 | [OH][Al]([OH])[OH] [Aluminium hydroxide] | 95.4

Row | Structure (SMILES) | cell viability [%]
51 | O=C(c1ccc(OCCN2CCCCC2)cc1)c1c(-c2ccc(O)cc2)sc2cc(O)ccc12 [Raloxifene HCl] | 98.9
52 | CCn1cc(C(=O)O)c(=O)c2cc(F)c(N3CCNCC3)cc21 [Norfloxacin] | 96
53 | CCOC(=O)C1=C(C)NC(C)=C(C(=O)OC)C1c1cccc([N+](=O)[O-])c1 (stereo not given) [Nitrendipine] | 95.2
54 | C[C@]12CC[C@@H]3c4ccc(O)cc4CC[C@H]3[C@@H]1C[C@@H](O)[C@@H]2O [Estriol] | 100
55 | CCc1cccc2c3c([nH]c12)C(CC)(CC(=O)O)OCC3 (stereo not given) [Etodolac] | 83.5
56 | CCC[C@H](NC(=O)[C@@H]1[C@H]2CCC[C@H]2CN1C(=O)[C@@H](NC(=O)[C@@H](NC(=O)c1cnccn1)C1CCCCC1)C(C)(C)C)C(=O)C(=O)NC1CC1 [Telaprevir (VX-950)] | 82
57 | COc1cc2c(cc1OC)[C@H]1C[C@@H](OC(=O)[C@@H](N)C(C)C)[C@H](CC(C)C)CN1CC2 [Valbenazine tosylate] | 87.3
58 | CC1=C(CC(=O)O)c2cc(F)ccc2/C1=C\c1ccc([S+](C)[O-])cc1 (stereo not given) [Sulindac] | 93.4
59 | C[C@H](NC(=O)[C@@H](Cc1ccc2ccccc2c1)NC(=O)[C@@H](C)N)C(=O)N[C@@H](Cc1c[nH]c2ccccc12)C(=O)N[C@H](Cc1ccccc1)C(=O)N[C@@H](CCCCN)C(N)=O | 98.5
60 | CCOC(=O)[C@H](CCc1ccccc1)N[C@@H](C)C(=O)N1CCC[C@H]1C(=O)O [Enalapril Maleate] | 99.6
61 | Cn1nnnc1SCC1=C(C(=O)O)N2C(=O)[C@@H](NC(=O)[C@H](OC=O)c3ccccc3)[C@H]2SC1 [Cefamandole nafate] | 91.8
62 | CNC(=O)[C@H](Cc1ccccc1)NC(=O)[C@H](CC(C)C)[C@H](CSc1cccs1)C(=O)NO [Batimastat (BB-94)] | 91.7
63 | Nc1cccc2c1CN(C1CCC(=O)NC1=O)C2=O (stereo not given) [Lenalidomide (CC-5013)] | 99
64 | O=S(=O)(O)CCCS(=O)(=O)O [Eprodisate disodium] | 97.1
65 | COc1ccc2[nH]c([S+]([O-])Cc3ncc(C)c(OC)c3C)nc2c1 (stereo not given) [Omeprazole] | 90.1
66 | O=C1/C(=C2\Nc3ccccc3C2=O)Nc2ccccc21 [Indigo] | 98.2
67 | Cc1ccccc1N1C(=O)c2cc(S(N)(=O)=O)c(Cl)cc2NC1C (stereo not given) [Metolazone] | 92.2
68 | Cc1cc(-n2c(=O)[nH]c(=O)n(C)c2=O)ccc1Oc1ccc(SC(F)(F)F)cc1 [Toltrazuril] | 87.2
69 | [I-].[K+] [Potassium Iodide] | 82.5
70 | O=C(NS(=O)(=O)c1ccc(Br)s1)c1ccc(Cl)cc1Cl [Tasisulam] | 68.5
71 | C=CC1=C(C(=O)O)N2C(=O)[C@@H](NC(=O)/C(=N\OCC(=O)O)c3csc(N)n3)[C@H]2SC1 [Cefixime] | 84.1
72 | OCCOCCN1CCN(C(c2ccccc2)c2ccc(Cl)cc2)CC1 (stereo not given) [Hydroxyzine pamoate] | 56.3
73 | OCCOCCN1CCN(C(c2ccccc2)c2ccc(Cl)cc2)CC1 (stereo not given) [Hydroxyzine 2HCl] | 73
74 | CCOC(=O)c1c(C)n(C)c2ccc(O)cc12 [Mecarbinate] | 91.2
75 | COc1ccc(C[C@@H]2c3cc(OC)c(OC)cc3CC[N@+]2(C)CCC(=O)OCCCCCOC(=O)CC[N@@+]2(C)CCc3cc(OC)c(OC)cc3[C@H]2Cc2ccc(OC)c(OC)c2)cc1OC [Cisatracurium Besylate] | 87.8
